The exact form of at least one protein or probe is not confirmed. The comparison behind a weaker result is the experiment's own reference, which may not be listed here. At least one verdict was read from the data and is not stated in words by the source. Where a protein sequence is shown, tags need not be part of it.
Molecular target: T1, VRK1 (vaccinia-related kinase 1), recombinant (UniProt Q99986)
T1 sequence (looked up, limits assumed): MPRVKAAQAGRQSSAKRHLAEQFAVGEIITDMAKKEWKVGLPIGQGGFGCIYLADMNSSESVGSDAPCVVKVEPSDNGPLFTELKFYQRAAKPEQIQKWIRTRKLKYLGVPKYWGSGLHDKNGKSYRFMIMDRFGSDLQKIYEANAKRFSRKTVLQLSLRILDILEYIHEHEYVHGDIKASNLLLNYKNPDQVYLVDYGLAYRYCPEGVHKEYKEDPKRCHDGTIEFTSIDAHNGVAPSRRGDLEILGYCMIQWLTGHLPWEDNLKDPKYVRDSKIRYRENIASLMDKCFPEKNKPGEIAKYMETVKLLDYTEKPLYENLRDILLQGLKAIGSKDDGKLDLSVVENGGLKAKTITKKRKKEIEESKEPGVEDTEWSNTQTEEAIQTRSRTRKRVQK
Assay: ELONA
Settings: 10 mM sodium phosphate, 0.15 M NaCl, pH 7.5, 1 mM MgCl2, 0.2% BSA, 37 C, 1 h, aptamers denatured at 95 C 10 min then ice 10 min, VRK1 coated on plate (20 or 200 ng/well), recombinant protein, protein details: 6xHis

[1] = 80 nM, label: 5' digoxigenin on both chains
[2] = 40 nM PCR-labeled chain, label: 5' digoxigenin, single-stranded DNA, letters put together from the description

Sequence | binding result [1] | also measured
ACGCTCGGATGCCACTACAGCGAGTACGTTGAACTTATCTCATCCCTTCTTTTGCCTCATGGACGTGCTGGTGA (double strand) [apVRK13 (F+R chains)] | binds more weakly | –
ACGCTCGGATGCCACTACAGGAGGGCGGGTGGGGGGGGGCTGGCGGTGGTCTGGCCTCATGGACGTGCTGGTGA (double strand) [apVRK27 (F+R chains)] | binds more weakly | –
ACGCTCGGATGCCACTACAGGGGGCAGGGATGGAAAGTAAGATGTGTGAGGCTGCCTCATGGACGTGCTGGTGA (double strand) [apVRK44 (F+R chains)] | binds more weakly | –
ACGCTCGGATGCCACTACAGCCCATGAATGTTTCCTTAGTTACGCATTTCTTCGCCTCATGGACGTGCTGGTGA (double strand) [apVRK21; 22 (F+R chains)] | binds more weakly | –
TCACCAGCACGTCCATGAGGGCACTTCCCACCCTACCCACCCCCCACCTCGCAACCTGTAGTGGCATCCGAGCGT [apVRKR33 (V#R33)] | – | binding result [2]: binds more weakly
ACGCTCGGATGCCACTACAGCCCTAATCTGTCGCTTTGATTTTTTTTACCTCTGCCTCATGGACGTGCTGGTGA (double strand) [apVRK42 (F+R chains)] | binds more weakly | –
TCACCAGCACGTCCATGAGGCCGCCGACCCCCCGCTTACTTTCCCCCCCCCTCCCTGTAGTGGCATCCGAGCGT [apVRKR8 (V#R8)] | – | binding result [2]: binds more weakly
ACGCTCGGATGCCACTACAGGGGGCGTGGGATGCCACATTCTTTAAGTTGGGTGCCTCATGGACGTGCTGGTGA (double strand) [apVRK41 (F+R chains)] | binds more weakly | –
TCACCAGCACGTCCATGAGGCAAGAAACCCACCCACCGCCCCCATCCGCCGTCCCTGTAGTGGCATCCGAGCGT [apVRKR28 (V#R28)] | – | binding result (40 nM synthetic aptamer, label: digoxigenin (5' when made with primer R5), single-stranded DNA, letters put together from the description): binds more weakly

Reference: PMC8156982, “DNA Aptamers against Vaccinia-Related Kinase (VRK) 1 Block Proliferation in MCF7 Breast Cancer Cells”
